Experimental data: article PMC4339892, “Neuropilin 1 is an entry factor that promotes EBV infection of nasopharyngeal epithelial cells” (Nature Communications, 2015)
These are yes or no findings as the source states them, for the method shown. For some assays here: Binding seen in cells or lysates may run through a third protein. Some results given as binding are weak or reduced against the parent protein; the word gives no strength.

Protein sequences, listed by entry. Tags and fused reporters are not part of them. Lines headed by an entry give the natural chain unless they say otherwise; changes in a name come on top. Chains listed by the source or under a name are the forms on record and can include a tag or linker. Residues count along the entry.
UniProt O14786: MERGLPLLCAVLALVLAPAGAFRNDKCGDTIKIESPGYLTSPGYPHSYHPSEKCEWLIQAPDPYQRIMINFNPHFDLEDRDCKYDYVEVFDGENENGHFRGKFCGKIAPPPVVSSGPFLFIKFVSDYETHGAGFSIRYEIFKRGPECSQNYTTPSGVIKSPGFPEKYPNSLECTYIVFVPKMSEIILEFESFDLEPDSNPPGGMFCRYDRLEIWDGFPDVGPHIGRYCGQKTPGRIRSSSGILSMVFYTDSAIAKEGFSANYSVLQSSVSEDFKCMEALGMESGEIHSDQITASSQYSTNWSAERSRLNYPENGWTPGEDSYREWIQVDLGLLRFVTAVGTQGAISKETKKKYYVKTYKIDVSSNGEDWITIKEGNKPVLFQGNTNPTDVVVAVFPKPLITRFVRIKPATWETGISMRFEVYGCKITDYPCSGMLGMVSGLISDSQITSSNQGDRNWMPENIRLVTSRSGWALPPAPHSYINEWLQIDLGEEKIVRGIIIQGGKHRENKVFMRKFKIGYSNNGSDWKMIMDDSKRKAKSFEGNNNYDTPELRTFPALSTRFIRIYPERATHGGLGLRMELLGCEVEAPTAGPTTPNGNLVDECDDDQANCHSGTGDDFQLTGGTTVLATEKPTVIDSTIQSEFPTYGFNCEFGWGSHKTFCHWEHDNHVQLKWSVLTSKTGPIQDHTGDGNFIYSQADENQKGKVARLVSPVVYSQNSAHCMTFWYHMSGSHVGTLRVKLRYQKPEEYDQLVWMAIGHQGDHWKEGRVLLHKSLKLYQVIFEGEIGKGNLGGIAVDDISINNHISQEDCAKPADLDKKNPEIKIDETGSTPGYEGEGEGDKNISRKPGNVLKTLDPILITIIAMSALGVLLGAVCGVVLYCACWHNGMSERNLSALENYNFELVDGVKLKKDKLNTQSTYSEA
NRP1-EGFP (EGFP-tagged neuropilin 1): residues 22-923 of O14786
soluble NRP1^30–636 (sNRP1^30–636): residues 30-636 of O14786
GST-NRP2^ABC (soluble extracellular ABC domain of NRP2) (O60462-3, form named): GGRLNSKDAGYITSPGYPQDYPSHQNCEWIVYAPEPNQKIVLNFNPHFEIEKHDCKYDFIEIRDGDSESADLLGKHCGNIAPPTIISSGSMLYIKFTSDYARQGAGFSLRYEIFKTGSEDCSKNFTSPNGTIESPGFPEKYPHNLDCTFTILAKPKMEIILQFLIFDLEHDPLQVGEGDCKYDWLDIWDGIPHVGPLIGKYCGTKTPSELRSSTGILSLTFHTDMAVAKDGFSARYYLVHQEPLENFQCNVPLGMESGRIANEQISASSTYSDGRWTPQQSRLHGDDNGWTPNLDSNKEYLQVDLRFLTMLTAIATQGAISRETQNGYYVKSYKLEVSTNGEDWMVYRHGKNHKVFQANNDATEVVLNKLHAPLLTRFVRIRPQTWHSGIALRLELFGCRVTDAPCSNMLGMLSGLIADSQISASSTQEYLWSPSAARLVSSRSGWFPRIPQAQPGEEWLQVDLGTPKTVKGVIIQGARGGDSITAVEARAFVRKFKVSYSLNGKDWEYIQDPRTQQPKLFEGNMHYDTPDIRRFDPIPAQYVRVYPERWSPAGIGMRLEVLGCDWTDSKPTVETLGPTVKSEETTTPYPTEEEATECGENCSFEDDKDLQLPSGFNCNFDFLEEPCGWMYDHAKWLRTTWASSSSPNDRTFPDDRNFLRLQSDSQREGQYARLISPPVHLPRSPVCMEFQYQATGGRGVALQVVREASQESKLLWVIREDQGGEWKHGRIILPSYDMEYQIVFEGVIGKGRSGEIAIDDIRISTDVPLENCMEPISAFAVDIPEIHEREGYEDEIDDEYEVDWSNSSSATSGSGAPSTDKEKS
NRP2 (neuropilin 2) expressed in HEK-293FT cells for the co-immunoprecipitation of Figure 3e (O60462-3, form named): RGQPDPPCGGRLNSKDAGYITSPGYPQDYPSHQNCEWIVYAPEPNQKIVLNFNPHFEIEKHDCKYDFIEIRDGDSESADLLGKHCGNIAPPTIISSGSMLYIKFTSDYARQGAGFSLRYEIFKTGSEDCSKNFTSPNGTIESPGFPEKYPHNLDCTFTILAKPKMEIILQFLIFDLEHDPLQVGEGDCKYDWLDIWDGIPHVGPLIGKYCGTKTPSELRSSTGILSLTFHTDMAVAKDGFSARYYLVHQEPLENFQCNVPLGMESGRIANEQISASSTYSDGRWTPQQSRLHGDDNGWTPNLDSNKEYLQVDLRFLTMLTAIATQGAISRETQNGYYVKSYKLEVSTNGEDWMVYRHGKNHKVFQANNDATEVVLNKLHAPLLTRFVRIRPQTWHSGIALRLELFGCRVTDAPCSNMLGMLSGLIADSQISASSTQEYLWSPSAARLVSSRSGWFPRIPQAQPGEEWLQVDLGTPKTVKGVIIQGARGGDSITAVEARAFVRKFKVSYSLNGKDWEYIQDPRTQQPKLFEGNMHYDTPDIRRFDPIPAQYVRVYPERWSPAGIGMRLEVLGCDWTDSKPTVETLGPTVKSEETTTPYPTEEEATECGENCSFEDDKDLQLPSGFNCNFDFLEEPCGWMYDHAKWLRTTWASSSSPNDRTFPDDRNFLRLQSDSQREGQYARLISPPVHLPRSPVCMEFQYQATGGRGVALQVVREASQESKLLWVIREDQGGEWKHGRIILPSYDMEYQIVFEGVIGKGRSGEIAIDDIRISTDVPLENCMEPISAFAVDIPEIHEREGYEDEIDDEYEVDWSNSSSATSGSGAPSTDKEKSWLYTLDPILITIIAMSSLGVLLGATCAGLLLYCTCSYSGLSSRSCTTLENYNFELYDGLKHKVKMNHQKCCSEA

Key:
[1] = target: NRP1-EGFP (EGFP-tagged neuropilin 1) (human) (UniProt O14786); test: co-IP; HEK-293FT cells co-transfected with pEGFP-NRP1 and pCEP-FLAG-gB^23–431 for 36 h; RIPA lysate; IP with anti-FLAG or anti-GFP antibody, protein G-Sepharose, immunoblot
[2] = target: FLAG-gB^23–431 (EBV glycoprotein B residues 23-431, CendR motif exposed) (Epstein-Barr virus) (UniProt P03188); test: ELISA; plates coated with 200 ng purified FLAG-gB^23–431, various concentrations of GST-NRP1 or GST-NRP2 for 2 h at RT, rabbit anti-GST and HRP-conjugated secondary antibody; apparent affinity constant; both purified
[3] = target: FLAG-gB^23–431 (EBV glycoprotein B residues 23-431, CendR motif exposed) (Epstein-Barr virus) (UniProt P03188); test: co-IP; HEK-293FT cells co-transfected with pEGFP-NRP1 and pCEP-FLAG-gB^23–431 for 36 h; RIPA lysate; IP with anti-FLAG or anti-GFP antibody, protein G-Sepharose, immunoblot
[4] = target: FLAG-gB^23–431 (EBV glycoprotein B residues 23-431, CendR motif exposed) (Epstein-Barr virus) (UniProt P03188); test: co-IP; HEK-293FT cells transfected with the indicated doses of expression vectors (gB, NRP1, NRP2) for 36 h; lysate IP with anti-FLAG, immunoblot with anti-GFP, anti-HA or anti-FLAG
[5] = target: FLAG-gB^23–431 (EBV glycoprotein B residues 23-431, CendR motif exposed) (Epstein-Barr virus) (UniProt P03188); test: pull-down; FLAG-gB fragments precipitated from HEK-293FT lysates on anti-FLAG (M2) Sepharose beads, incubated with in vitro translated sNRP1^30-636 overnight at 4 °C, washed in RIPA buffer, immunoblot; only the target purified
[6] = target: FLAG-gB^89–427 (gB lacking 23-88 and the CendR motif 428-431) (Epstein-Barr virus) (UniProt P03188); test: as above
[7] = target: FLAG-gB^23–427 (CendR motif-deletion mutant of gB) (Epstein-Barr virus) (UniProt P03188); test: as above

In the case of “FLAG-gB^23–431 (EBV glycoprotein B residues 23-431, CendR motif exposed) (from UniProt P03188 23-431) (domain or fragment)”, the binding [1] is reported as “binds”.
With “GST-NRP2^ABC (soluble extracellular ABC domain of NRP2) (from UniProt O60462-3 29-852) (domain or fragment)” the binding [2] was “binds”.
In the case of “NRP1-EGFP (EGFP-tagged neuropilin 1) (from UniProt O14786-1 22-923) (receptor)”, the binding [3] is reported as “binds” and the binding [4] is reported as “binds”.
In the case of “NRP2 (neuropilin 2) expressed in HEK-293FT cells for the co-immunoprecipitation of Figure 3e (from UniProt O60462-3 21-926) (receptor)”, the binding [4] is reported as “binds”.
“soluble NRP1^30–636 (sNRP1^30–636) (from UniProt O14786-1 30-636) (domain or fragment)” was tested, and the binding [5] was “binds”, the binding [6] was “binds weakly” and the binding [7] was “binds”.
